AC50 data for 62 compounds are collected here from PubChem BioAssay AID493014 (National Center for Advancing Translational Sciences (NCATS), 2011).

Values joined by “and” are separate entries in the source; they are usually repeats but may differ in a detail not shown here. Equal values may be shown once. The list shows a part of the results. The main result of the screen is listed elsewhere. These columns were measured beside it and carry no call. Compounds called inactive in the main read-out are mostly missing here. Words in brackets tell the shape of the fitted curve; partial curves, single points and poor fits give uncertain potencies.

A short description of the experiment: qHTS Assay to Find Inhibitors of Chronic Active B-Cell Receptor Signaling. Conditions: ABC-DLBCL IkBa-CBG/CBR reporter, luminescence ratio (green luciferase fused to IkBa over red control in TMD8 lymphoma cells), 4 h. The method in brief: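 TMD8 human ABC-DLBCL cells with doxycycline-inducible IκBα–green luciferase fusion and unfused red luciferase, in 0.5% FBS medium; compounds up to 46 uM, 4 h at 37C. Green/red luminescence ratio, filter-overlap corrected, fitted to concentration-response curves.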

The mark [1] stands for this setting: measured here: CBR red luminescence, cell number.
[2] abbreviates: measured here: IkBa-CBG green luminescence.

For the compound `CN(C)CCCNc1c2c(nc3ccccc13)CCC2`, under setting [1], the AC50 is 5.62 µM [falling, partial curve, poor fit].

Take `O=C(O)c1cccc(-n2cccc2/C=C2/NC(=O)N(c3ccc(Cl)cc3)C2=O)c1`: the AC50 under setting [1] was 35.5 µM [falling, single point].

Consider `CC1CCCCN1Cc1c(O)ccc2c(=O)c(-c3ccc(Cl)cc3)coc12` (stereo unspecified), for which the AC50 under setting [1] was 2 µM [rising, partial curve, poor fit].

Consider `COc1ccc(CC(NC(C)=O)C(=O)NC2CCN(c3c(Cc4ccccc4)c(C)nc4ncnn34)CC2)c(OC)c1` (stereo unspecified), for which the AC50 under setting [1] was 11.2 µM [rising, partial curve].

With `COc1ccccc1-n1c(SCC(N)=O)nc2sc3c(c2c1=O)CCC3`, under setting [1], the AC50 was 5.62 µM [rising, full curve, poor fit].

Consider `CCCCC[C@@H]1C=C(C(=O)O)[C@H](c2cccc(C)c2)N1S(=O)(=O)c1ccc(C)cc1`, for which the AC50 under setting [1] was 3.66 µM [rising, partial curve, poor fit].

Take `Cc1c(C(=O)c2ccccc2)c2ccccn2c1CCc1ccccn1`: the AC50 under setting [1] was 22.4 µM [falling, single point].

As for `Cc1ccc(S(=O)(=O)/N=C(/NC(=S)Nc2cccc(C)c2)c2ccccc2)cc1`, under setting [1], the AC50 was 16.4 µM [falling, single point].

Regarding `Cc1ccc(SCc2nc(-c3ccncc3)no2)cc1`, the AC50 under setting [1] is 20.6 µM [rising, partial curve].

With `COC(=O)c1c(C)[nH]c(C=O)c1-c1ccccc1`, the AC50 under setting [1] was 3.98 µM [rising, full curve].

With `CC(C)(C)CN1CCN(CC#Cc2ccccc2)CC1CCO` (stereo unspecified), the AC50 under setting [1] is 28.2 µM [falling, single point].

On to `Cc1ccnc2nc(C(=O)Nc3nnc(-c4ccccc4)o3)nn12`, for which, under setting [1], the half-maximal activity concentration (AC50) is 20 µM [falling, single point].

`Cn1nc(-c2ccccc2)c(N2CCCCC2)cc1=O`: under setting [1], the AC50 is 3.55 µM [rising, partial curve, poor fit].

For the compound `CCc1ccc(-n2c(=O)c3c(C)c(C(=O)N(C)C)sc3n(CC(=O)Nc3cc(Cl)ccc3C)c2=O)cc1`, the AC50 under setting [1] was 5.62 µM [falling, full curve, poor fit].

For the compound `COc1cccc(CNC(=O)c2cccnc2Sc2ccc(Cl)cc2)c1`, the concentration at half-maximal activity (AC50) under setting [1] was 1.26 µM [rising, full curve, poor fit].

In the case of `CCN1CCN(CCNC(=O)c2ccc(/C=C3/Sc4ccccc4N(Cc4cccc(C)c4)C3=O)cc2)CC1`, under setting [1], the AC50 is 10 µM [rising, partial curve, poor fit].

As for `CCOc1cc(/C=C2\CN(C)C/C(=C\c3ccc(O)c(OCC)c3)C2=O)ccc1O`, the AC50 is 35.5 µM [falling, single point] under setting [1] and 3.16 µM [falling, partial curve, poor fit] under setting [2].

Regarding `O=C(O)CCSCCCN1C(=O)c2cccc3cccc(c23)C1=O`, under setting [1], the concentration at half-maximal activity (AC50) was 1.41 µM [falling, full curve].

Take `CC(C)N(C)S(=O)(=O)c1ccc(NC(=O)C2=COCCO2)cc1`: the AC50 under setting [1] was 16.4 µM [rising, single point].

Take `O=C(CSc1nnc(C2CCCCC2)o1)N1CCCCC1`: the AC50 under setting [1] was 12.6 µM [rising, partial curve].

`COc1ccc(CN2CCN(Cc3c[nH]c4ccccc34)CC2CCO)cc1C` (stereo unspecified): under setting [1], the half-maximal activity concentration (AC50) was 17.8 µM [falling, partial curve, poor fit].

Regarding `CC1Sc2ccc(S(=O)(=O)N3CCC(C(=O)Nc4cccc(Cl)c4)CC3)cc2NC1=O` (stereo unspecified), under setting [1], the AC50 is 14.1 µM [falling, single point].

Consider `O=C(CCN1C(=O)S/C(=C\c2ccc(Cl)cc2)C1=O)Nc1ccc(C(=O)O)cc1`, for which the AC50 under setting [1] is 2.82 µM [falling, single point].

For the compound `O=C(Cc1ccccc1)Nc1nc2ccccc2s1`, the AC50 under setting [1] is 14.6 µM [falling, single point].

For `CSc1ccccc1NC(=O)CN(C)CC(=O)Nc1ccccc1N1CCOCC1`, under setting [1], the AC50 was 0.562 µM [rising, full curve, poor fit].

Consider `NC(=O)CC(NC(=O)Cc1cccc2ccccc12)c1ccc(NCc2cc(F)ccc2F)c([N+](=O)[O-])c1` (stereo unspecified), for which, under setting [1], the AC50 is 0.794 µM [rising, full curve, poor fit].

On to `CCOC(=O)c1sc(=NC(=O)c2ccc(OC(C)C)cc2)n(C)c1C`, for which, under setting [1], the AC50 is 35.5 µM [falling, single point].

For `O=C(/C=C/c1ccc(Cl)cc1Cl)NCCSc1ccccc1`, under setting [1], the AC50 was 1.46 µM [falling, partial curve, poor fit].

Take `CN(C)c1ccc(-c2cc(O)c3ncccc3c2)cc1`: the AC50 under setting [1] was 1.64 µM [rising, full curve, poor fit] and 6.51 µM [rising, partial curve, poor fit].

Take `OCc1cn(-c2ccccc2)nc1-c1ccc2c(c1)OCCO2`: the AC50 under setting [1] is 0.82 µM [rising, partial curve, poor fit].

With `Cc1ccc(C)c(NC(=S)NNC(=O)c2sccc2C)c1`, the AC50 under setting [1] was 22.4 µM [falling, single point].

In the case of `COc1ccc(C)cc1Nc1c2c(nc3ccccc13)CCC2`, the AC50 was 12.6 µM [rising, partial curve] under setting [1] and 15.8 µM [falling, single point] under setting [2].

`Cc1ccc(NC(=S)NCc2ccc(Cl)cc2)c(C)c1`: under setting [1], the AC50 was 35.5 µM [falling, single point].

With `CC(=O)Nc1ccc(S(=O)(=O)NCC(=O)NC(C)c2ccc(S(N)(=O)=O)cc2)cc1` (stereo unspecified), the AC50 under setting [1] was 35.5 µM [rising, single point].

For the compound `Nc1[nH]nc2nc(N3CCCC3)nc(-c3ccccc3)c12`, the AC50 under setting [1] is 35.5 µM [falling, single point].

For `Nc1c2nc(-c3ccccc3Cl)[nH]c(=O)c2nc(=O)n1-c1ccccc1`, the half-maximal activity concentration (AC50) under setting [1] is 6.31 µM [falling, full curve, poor fit].

As for `CC(=O)c1ccc(C(=O)Nc2nnc(-c3ccc(Cl)cc3)o2)cc1`, the AC50 under setting [1] was 10 µM [falling, partial curve].

On to `CN(C)c1ccc(NC(=S)c2ccc3ccccc3n2)cc1`, for which the AC50 under setting [1] was 2.51 µM [rising, partial curve].

In the case of `CSc1ccccc1NC(=O)Nc1cccc(Cl)c1`, the AC50 under setting [1] is 3.26 µM [falling, partial curve].

As to `CC(C)c1ccc(NC(=O)c2cnn(-c3ccccc3)c2NC(=O)c2ccco2)cc1`, the AC50 under setting [1] is 7.08 µM [rising, partial curve, poor fit].

For `S=C(N/N=C1\C2CN3CCN(C2)CC1(c1ccccc1)C3)Nc1ccccc1`, the AC50 under setting [1] is 29.1 µM [rising, single point].

Regarding `COc1ccc(O)c(/C=N/c2sc(C)c(C)c2C#N)c1`, the AC50 under setting [1] was 6.51 µM [falling, single point].

For the compound `Cc1ccc(C(=O)c2coc3ccc(O)c(CN(C)C)c23)cc1`, the AC50 under setting [1] is 35.5 µM [falling, partial curve, poor fit].

For the compound `CCN(CC)C(=S)NC(=O)c1ccc(F)cc1`, under setting [2], the AC50 was 35.5 µM [falling, partial curve, poor fit].

With `CC(C)c1cc(-c2cc(-c3ccccc3)on2)nc(NC2CCCC2)n1`, the AC50 under setting [1] is 28.2 µM [rising, single point].

On to `CCCCn1c(C)cc2cc(O)ccc21`, for which the AC50 under setting [1] is 23.1 µM [rising, partial curve].

Take `O=C(c1ccco1)N1CCN(C(=O)c2ccc(-c3ccccc3Cl)o2)CC1`: the AC50 under setting [1] was 29.1 µM [falling, single point].

For `Cc1cccnc1Nc1nc(-c2ccccn2)cs1`, the AC50 under setting [1] was 14.6 µM [falling, partial curve, poor fit] and the AC50 under setting [2] was 18.4 µM [falling, single point].

With `CCCCn1c(N)c(N(C(=O)CSc2nnnn2-c2ccccc2)C2CCCC2)c(=O)[nH]c1=O`, the AC50 under setting [1] was 16.4 µM [rising, single point].

Turning to `Cc1cccc(Nc2ncnc3ccccc23)c1`, the AC50 under setting [1] was 7.31 µM [falling, partial curve].

Take `C/C(=N/NC(=O)c1cc(-c2cccc([N+](=O)[O-])c2)n[nH]1)c1cccc(O)c1`: the AC50 under setting [1] is 7.94 µM [falling, partial curve, poor fit].

On to `Cc1nc2nc(COc3ccccc3)[nH]n2c(=O)c1C`, for which the AC50 under setting [1] is 5.8 µM [falling, full curve].

As to `CCOc1ccccc1N(CC(=O)Nc1cc(OC)ccc1OC)S(=O)(=O)c1ccccc1`, the concentration at half-maximal activity (AC50) under setting [1] was 5.62 µM [falling, partial curve, poor fit].

In the case of `COc1ccc(OC)c(-c2csc(NC(=O)COC(=O)C3CC3)n2)c1`, the AC50 by setting is: under setting [1], 6.51 µM [falling, single point]; under setting [2], 6.51 µM [rising, partial curve, poor fit].

Take `COc1ccc(OCCCC(=O)Nc2nc(C)c(C(C)=O)s2)cc1`: the AC50 under setting [1] was 3.55 µM [falling, full curve].

Consider `CCN(C1CCCCC1)S(=O)(=O)c1cn(C)c(=O)n(C)c1=O`, for which the AC50 under setting [1] is 4.61 µM [rising, full curve].

In the case of `COc1ccc(Nc2cc(C(=O)NCCCN3CCOCC3)c3ccccc3n2)cc1OC`, the AC50 under setting [1] was 4.61 µM [falling, partial curve].

For the compound `COc1cccc(C2C(C#N)=C(N)N(N(C)C)C3=C2C(=O)CC(C)(C)C3)c1OC` (stereo unspecified), under setting [1], the AC50 was 6.31 µM [rising, single point].

With `CC1CCCCC1NC(=O)/C(C#N)=C/c1ccc(F)c(F)c1` (stereo unspecified), the AC50 under setting [1] was 4.11 µM [falling, partial curve].

As to `COc1ccccc1NC(=O)C1=C(C)Nc2nnnn2C1c1cc(Br)ccc1OC` (stereo unspecified), the AC50 under setting [1] was 20 µM [falling, partial curve, poor fit].

As to `CCc1ncc(CN2CCCC(C(=O)Nc3ccc(-c4cscn4)cc3)C2)cn1` (stereo unspecified), the AC50 under setting [1] was 6.31 µM [falling, partial curve].

Take `Oc1ccc(C2C=C(c3ccc(F)cc3)Nc3ncnn32)cc1` (stereo unspecified): under setting [1], the AC50 was 6.31 µM [falling, single point].
